Measurements reported in PubChem BioAssay AID504786 (Drosophila RNAi Screening Center, 2011)

Assay: 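Fly genes required for HIF-dependent transcription when hypoxia is mimicked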 (primary screen)
Cell system: Drosophila S2 cells with a stable HIF luciferase reporter
Reagents: long dsRNA against Drosophila genes, about 0.2 µg dsRNA per well of a 384-well plate
Duration: three days of knock-down, then 20 h of DFO before reading
Conditions: desferrioxamine (DFO) at 100 µM, an iron chelator that mimics hypoxia, for 20 h
Measured: 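Firefly luciferase driven by the mouse ldh-a hypoxia-response element, measured after 20 h of 100 µM DFO; z-scores per plate, higher means more signal lost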
Scale: z-score: higher = stronger loss of HIF reporter signal
In all, the deposit lists about 21,000 reagents; below is a random part of those that have a named target and a result. 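Primary screen; positive scores mean lost reporter signal, so the sign may be inverted from the usual convention.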 Names joined by + are all predicted targets of the reagent.

| gene | dsRNA | z-score, replicate 1 | z-score, replicate 2 | z-score, replicate 3 | z-score, replicate 4 |
| --- | --- | --- | --- | --- | --- |
| ckd | DRSC08418 | -0.3 | -0.5 | – | – |
| CG5104 | DRSC11765 | -0.2 | -0.5 | – | – |
| CG16739 | DRSC06621 | 0.4 | 1.1 | – | – |
| CG11663 | DRSC17793 | 0.9 | 0.1 | – | – |
| mamo | DRSC19370 | -0.4 | -0.5 | – | – |
| CG10958 | DRSC17768 | -0.3 | -0.3 | – | – |
| mira | DRSC16998 | -0.2 | -0.4 | – | – |
| trol | DRSC17714 | 0.2 | 0.1 | – | – |
| trol | DRSC17718 | 0.1 | -0.1 | – | – |
| trol | DRSC18613 | -0.2 | -0.6 | – | – |
| trol | DRSC18814 | -0.3 | -0.1 | – | – |
| nyo | DRSC15029 | -0.4 | -0.2 | – | – |
| nyo | DRSC15030 | -0.3 | 0.2 | – | – |
| CG33177 | DRSC19949 | -0.4 | -0.7 | – | – |
| CG8841 | DRSC07286 | -0.3 | -0.1 | – | – |
| CG9590 | DRSC16506 | -0.3 | -0.3 | – | – |
| Usp8 | DRSC15876 | 0 | 0.1 | – | – |
| Pgam5 | DRSC18551 | -0.3 | -0.4 | – | – |
| TfIIB | DRSC03454 | 0.2 | 0.6 | – | – |
| CG7387 | DRSC10833 | -0.3 | -0.5 | – | – |
| ACXE | DRSC00847 | -0.4 | -0.1 | – | – |
| CG32986 | DRSC02509 | -0.3 | -0.4 | – | – |
| CG5225 | DRSC15742 | 0 | -0.6 | – | – |
| CG1941 | DRSC06802 | -0.3 | -0.3 | – | – |
| CenG1A | DRSC02538 | -0.3 | -0.3 | – | – |
| CenG1A | DRSC03505 | -0.4 | -0.2 | – | – |
| CenG1A | DRSC03506 | -0.2 | -0.2 | – | – |
| MED14 | DRSC08235 | 0 | 0.1 | – | – |
| CG5273 | DRSC18612 | -0.3 | -0.2 | – | – |
| Art8 | DRSC02530 | -0.3 | -0.3 | – | – |
| CG10598 | DRSC19358 | 0.2 | 0.8 | – | – |
| CG13404 | DRSC19536 | -0.3 | 0.3 | – | – |
| Rift | DRSC14330 | -0.3 | -0.5 | – | – |
| Orco | DRSC12358 | -0.3 | -0.3 | – | – |
| ReepA | DRSC04572 | -0.1 | 0.1 | – | – |
| Rcd5 | DRSC08180 | 1.1 | 1.3 | – | – |
| CG14609 | DRSC12553 | -0.2 | -0.5 | – | – |
| CAH2 | DRSC10746 | -0.4 | -0.6 | – | – |
| Lsm10 | DRSC06250 | -0.2 | -0.1 | – | – |
| SNCF | DRSC10115 | -0.4 | 2.1 | – | – |
| CG7407 | DRSC11824 | -0.4 | -0.6 | – | – |
| CG8858 | DRSC07290 | -0.4 | -0.1 | – | – |
| Syn2 | DRSC06902 | -0.3 | -0.4 | – | – |
| dpr4 | DRSC14531 | -0.1 | -0.3 | – | – |
| dpr4 | DRSC14929 | -0.3 | -0.6 | – | – |
| Gnpnat | DRSC15405 | -0.3 | -1 | – | – |
| CG13337 | DRSC06371 | -0.2 | 0 | – | – |
| MED31 | DRSC12142 | 0 | 1 | – | – |
| CG31678 | DRSC02618 | -0.3 | -0.1 | – | – |
| CG31678 | DRSC02619 | -0.3 | -0.3 | – | – |
| Pgk | DRSC00769 | -0.4 | -0.9 | – | – |
| lap | DRSC12628 | -0.4 | -0.7 | – | – |
| Setd3 | DRSC17840 | -0.2 | -0.1 | – | – |
| Setd3 | DRSC18269 | -0.2 | -0.6 | – | – |
| CG18327 | DRSC06722 | 0.1 | -0.2 | – | – |
| NijC | DRSC14851 | -0.3 | -0.4 | – | – |
| Idh3a | DRSC19446 | -0.2 | 0.1 | – | – |
| btsz | DRSC14982 | 0.6 | -0.9 | – | – |
| btsz | DRSC16231 | 0 | 0.3 | – | – |
| Pkcdelta | DRSC19356 | -0.2 | 0.6 | – | – |
| Pkcdelta | DRSC19399 | -0.1 | 0.3 | – | – |
| Cpr64Aa | DRSC08460 | -0.5 | -0.6 | – | – |
| cola + swif | DRSC06826 | -0.3 | -0.5 | – | – |
| kek3 | DRSC03553 | -0.3 | -0.3 | -0.2 | -0.3 |
| Srg2 + CG42826 | DRSC10681 | 0 | 0.6 | – | – |
| Srg2 + CG42826 | DRSC10682 | -0.1 | -0.1 | – | – |
| CG17855 | DRSC02638 | 1.7 | 1.4 | – | – |
| AIMP3 | DRSC04500 | -0.3 | 0 | – | – |
| Faf2 | DRSC03325 | -0.4 | -0.4 | – | – |
| CPT2 | DRSC08553 | 0.1 | 0 | – | – |
| Ubc6 | DRSC12370 | 0.1 | 0.4 | – | – |
| kek1 | DRSC03551 | -0.3 | -0.7 | – | – |
| syd | DRSC10963 | -0.1 | -0.5 | – | – |
| bel | DRSC16555 | -0.6 | -0.5 | – | – |
| CG4582 | DRSC15605 | -0.3 | 1.1 | – | – |
| CLIP-190 | DRSC03283 | -0.3 | 0.6 | – | – |
| mRpL9 | DRSC15678 | 1.8 | 2.4 | – | – |
| CG10154 | DRSC09707 | -0.3 | -0.4 | – | – |
| mthl7 | DRSC10852 | 0 | -0.4 | – | – |
| CG18518 | DRSC01509 | 0.2 | -0.1 | – | – |
| Caper | DRSC02137 | 0.2 | 0.5 | – | – |
| mop | DRSC11065 | 0 | -0.3 | – | – |
| Cyp6a23 | DRSC07383 | -0.1 | -0.1 | – | – |

Part of the list above in another layout:
AIMP3 [DRSC04500]
- z-score, replicate 1: -0.3
- z-score, replicate 2: 0

Faf2 [DRSC03325]
- z-score, replicate 1: -0.4
- z-score, replicate 2: -0.4

CPT2 [DRSC08553]
- z-score, replicate 1: 0.1
- z-score, replicate 2: 0

Ubc6 [DRSC12370]
- z-score, replicate 1: 0.1
- z-score, replicate 2: 0.4

kek1 [DRSC03551]
- z-score, replicate 1: -0.3
- z-score, replicate 2: -0.7

syd [DRSC10963]
- z-score, replicate 1: -0.1
- z-score, replicate 2: -0.5

bel [DRSC16555]
- z-score, replicate 1: -0.6
- z-score, replicate 2: -0.5

CG4582 [DRSC15605]
- z-score, replicate 1: -0.3
- z-score, replicate 2: 1.1

CLIP-190 [DRSC03283]
- z-score, replicate 1: -0.3
- z-score, replicate 2: 0.6
